± gives the standard error. The uncertainty is large for many entries.
B1: glmS ribozyme (parent)
chain: AUAAAAGCGCCAGAACUACAGAAAUGUAGUUGACGAGGAGGAGGUUUAUCGAAUUUUCGGCGGAUGCCUCCAAA

Variants of: B1
Experiment: KM; higher = weaker cofactor use; RNA array
Conditions: with glucosamine-6-phosphate
Procedure, shortened: (§1)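 Tiles bearing barcoded ribozyme variants, transcribed in situ by E. coli RNA polymerase on sequenced MiSeq chips, were imaged over ~14 h at 37 °C using a hybridised Cy3 probe. Glucosamine-6-phosphate was supplied at 40 μM to 10 mM in HEPES/KCl/Mg(OAc)2 buffer. kobs came from one- or two-exponential decay fits to normalised per-tile medians, and weighted Michaelis–Menten fits then provided kcat and KM.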

Variant | KM
U46C U65A | 4190 ± 3100 µM
U54C U57G | 66500 ± 2300 µM
U56G G59A | 1920 ± 460 µM
C58A U69C | 640 ± 220 µM
U65A C68U | 499 ± 310 µM
U56G C70U | 142 ± 93 µM
C58U | 4350 ± 360 µM
C58A | 4110 ± 820 µM
C50G C67A | 32.5 ± 20 µM
A48U C67A | 714 ± 700 µM
A52G U57C | 1790 ± 110 µM
A52G U57A | 3470 ± 1700 µM
U47C U57C | 890 ± 540 µM
A53G C71A | 572 ± 380 µM
U54G U56A G63C | 189 ± 180 µM
U54C U69G | 168 ± 98 µM
A48G C58U | 1220 ± 940 µM
U55A U65C | 1160 ± 230 µM
U55G C67A | 88.4 ± 54 µM
G66A C67U | 697 ± 380 µM
G59A C61G | 34.3 ± 22 µM
U56A C58G | 1930 ± 470 µM

Variant | KM
C67A C70U | 878 ± 530 µM
G51A G59U | 157 ± 36 µM
A52U U69C | 1990 ± 540 µM
A48U U54C | 4280 ± 2200 µM
A48U U54G | 1560 ± 790 µM
U65A G66C | 1400 ± 320 µM
U56C A64G | 2690 ± 560 µM
A53U C68G | 72.8 ± 62 µM
U46G U55A | 4010 ± 2100 µM
U46G U55C | 3110 ± 1900 µM
U55G U57C | 4830 ± 1100 µM
U47G U54A | 1710 ± 1100 µM
A48C C70U | 3470 ± 540 µM
A48C C70G | 1030 ± 750 µM
U55A C58G | 17000 ± 11000 µM
A48U U55A | 1310 ± 530 µM
U57A G66U | 635 ± 350 µM
U57A G66A | 4040 ± 1400 µM
U57A C71G | 12400 ± 6200 µM
U49C A53U | 45 ± 30 µM
C58A G66U | 2010 ± 1100 µM

Taken from above:
Value for U47G U54A under KM: 1710 ± 1100 µM
Value for C58A G66U under KM: 2010 ± 1100 µM
Value for A48U U54C under KM: 4280 ± 2200 µM
Value for A48C C70G under KM: 1030 ± 750 µM

Variants of: B1
Experiment: self-cleavage kobs at 2500 uM GlcN6P; higher = faster cleavage; RNA array
Conditions: with glucosamine-6-phosphate
Procedure, shortened: as §1

Variant | self-cleavage kobs at 2500 uM GlcN6P
U54C U57G | 1.78e-05 ± 1.2e-05 s⁻¹
U55G C67A | 0.00778 ± 0.0068 s⁻¹
C58A G66U | 3.5e-05 ± 1.8e-05 s⁻¹

Variants of: B1
Experiment: self-cleavage kobs at 40 uM GlcN6P; higher = faster cleavage; RNA array
Conditions: with glucosamine-6-phosphate
Procedure, shortened: as §1

Variant | self-cleavage kobs at 40 uM GlcN6P
G7U C50G G63A | 3.8e-05 ± 2.2e-05 s⁻¹
C11U C16G C70G | 4.36e-05 ± 2.6e-05 s⁻¹
G29A U55G | 1.93e-05 ± 1.5e-05 s⁻¹
G29U C50G A64C | 2.47e-05 ± 2.4e-05 s⁻¹
A15C A42G U47G A53G | 1.68e-05 ± 1.4e-05 s⁻¹
A6G C68G C70U | 3.2e-05 ± 2.6e-05 s⁻¹
G29U C34A G37U C67G | 3.84e-05 ± 2.3e-05 s⁻¹
A6U C50A G60C C68G | 5.23e-05 ± 2.8e-05 s⁻¹
A14C C70G | 2.38e-05 ± 1.4e-05 s⁻¹
C10U U47G A52U U69A | 2.79e-05 ± 1.5e-05 s⁻¹
A14C C50G | 2.09e-05 ± 1.6e-05 s⁻¹
C10G G38A C50G | 2.88e-05 ± 2.3e-05 s⁻¹
C11A U49C A52G C67G | 3e-05 ± 2.8e-05 s⁻¹
A15G C50G | 3.49e-05 ± 2.3e-05 s⁻¹
U55A U65C | 2.09e-05 ± 1.7e-05 s⁻¹
G13A U45A | 2.35e-05 ± 1.4e-05 s⁻¹

Variant | self-cleavage kobs at 40 uM GlcN6P
G13U U31C C70U | 2.98e-05 ± 2.1e-05 s⁻¹
A15C G29A C50U C70G | 3.37e-05 ± 2.6e-05 s⁻¹
C11U U55C | 4.06e-05 ± 2.1e-05 s⁻¹
G13U U31C | 1.89e-05 ± 1.6e-05 s⁻¹
C16A G35U C68U | 5.06e-05 ± 3e-05 s⁻¹
C16U C34U G62A C68G | 3.45e-05 ± 2.8e-05 s⁻¹
G7A G9A A53G G60A U65A C67A | 8.38e-05 ± 4.3e-05 s⁻¹
C11U C67U | 2.43e-05 ± 1.3e-05 s⁻¹
A6G A15G | 2.4e-05 ± 1.5e-05 s⁻¹
A6G C50G C68G | 2.19e-05 ± 1.6e-05 s⁻¹
A15C C71G | 1.25e-05 ± 1.1e-05 s⁻¹
C11U A39U | 1.49e-05 ± 1.5e-05 s⁻¹
C11G G51A U65A C67G | 2.33e-05 ± 2.2e-05 s⁻¹
G29U U69A | 2.15e-05 ± 1.4e-05 s⁻¹
A15G A53U U57G C68G | 4.05e-05 ± 3.4e-05 s⁻¹
A14U C68G C70U | 2.54e-05 ± 2e-05 s⁻¹

Variants of: B1
Experiment: self-cleavage kobs at 10000 uM GlcN6P; higher = faster cleavage; RNA array
Conditions: with glucosamine-6-phosphate
Procedure, shortened: as §1

Variant | self-cleavage kobs at 10000 uM GlcN6P
G7U C50G G63A | 2.31e-05 ± 1.7e-05 s⁻¹
G29U C50G A64C | 2.56e-05 ± 1.9e-05 s⁻¹
A14C C50G | 1.54e-05 ± 1.5e-05 s⁻¹
A15G C50G | 2.54e-05 ± 2.1e-05 s⁻¹
C11G G51A U65A C67G | 2.47e-05 ± 1.8e-05 s⁻¹
U57A G66U | 1.96e-05 ± 1.3e-05 s⁻¹
U57A C71G | 2.37e-05 ± 1.5e-05 s⁻¹

Variants of: B1
Experiment: self-cleavage kobs at 640 uM GlcN6P; higher = faster cleavage; RNA array
Conditions: with glucosamine-6-phosphate
Procedure, shortened: as §1

Variant | self-cleavage kobs at 640 uM GlcN6P
C11U C16G C70G | 0.000216 ± 0.00011 s⁻¹
A6G C68G C70U | 3.11e-05 ± 2.4e-05 s⁻¹
C10U U47G A52U U69A | 3.76e-05 ± 2e-05 s⁻¹
A14U C68G C70U | 4e-05 ± 3.6e-05 s⁻¹

Variants of: B1
Experiment: self-cleavage kobs at 160 uM GlcN6P; higher = faster cleavage; RNA array
Conditions: with glucosamine-6-phosphate
Procedure, shortened: as §1

Variant | self-cleavage kobs at 160 uM GlcN6P
A48U C67A | 2.2e-05 ± 2e-05 s⁻¹
C16U C34U G62A C68G | 3.96e-05 ± 2.7e-05 s⁻¹
A48U U54C | 3.41e-05 ± 1.9e-05 s⁻¹
A48C C70U | 1.93e-05 ± 1.4e-05 s⁻¹
G29U U69A | 3.11e-05 ± 1.7e-05 s⁻¹
A14U C68G C70U | 3.25e-05 ± 2.1e-05 s⁻¹

Reference: the supplement of paper PMC7125110
